What all share (assay): enzyme reaction in vitro
Series [1] has as its system Rad1/Rad10 endonuclease complex (Saccharomyces cerevisiae). To be noted: 37 C, purified recombinant protein, label: 5' biotin, single-stranded DNA.
The target in series [2] is T1, Exonuclease III (Escherichia coli) (UniProt P09030).
T1 sequence (looked up, limits assumed): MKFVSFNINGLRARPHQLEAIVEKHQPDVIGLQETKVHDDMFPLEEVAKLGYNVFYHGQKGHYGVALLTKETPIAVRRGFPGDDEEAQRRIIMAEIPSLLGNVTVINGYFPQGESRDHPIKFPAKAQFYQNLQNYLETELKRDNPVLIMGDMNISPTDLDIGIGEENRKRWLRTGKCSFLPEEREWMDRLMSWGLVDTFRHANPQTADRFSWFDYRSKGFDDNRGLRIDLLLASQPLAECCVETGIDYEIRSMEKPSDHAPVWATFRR
To be noted: 0 or 50 mM KCl, purified recombinant protein, label: 5' biotin, single-stranded DNA.

Chains of the proteins cited; added tags and fusions are not shown. A line that says so, or that is headed by a name, gives the form on record, which may keep a tag or linker.
UniProt P19821, whole entry: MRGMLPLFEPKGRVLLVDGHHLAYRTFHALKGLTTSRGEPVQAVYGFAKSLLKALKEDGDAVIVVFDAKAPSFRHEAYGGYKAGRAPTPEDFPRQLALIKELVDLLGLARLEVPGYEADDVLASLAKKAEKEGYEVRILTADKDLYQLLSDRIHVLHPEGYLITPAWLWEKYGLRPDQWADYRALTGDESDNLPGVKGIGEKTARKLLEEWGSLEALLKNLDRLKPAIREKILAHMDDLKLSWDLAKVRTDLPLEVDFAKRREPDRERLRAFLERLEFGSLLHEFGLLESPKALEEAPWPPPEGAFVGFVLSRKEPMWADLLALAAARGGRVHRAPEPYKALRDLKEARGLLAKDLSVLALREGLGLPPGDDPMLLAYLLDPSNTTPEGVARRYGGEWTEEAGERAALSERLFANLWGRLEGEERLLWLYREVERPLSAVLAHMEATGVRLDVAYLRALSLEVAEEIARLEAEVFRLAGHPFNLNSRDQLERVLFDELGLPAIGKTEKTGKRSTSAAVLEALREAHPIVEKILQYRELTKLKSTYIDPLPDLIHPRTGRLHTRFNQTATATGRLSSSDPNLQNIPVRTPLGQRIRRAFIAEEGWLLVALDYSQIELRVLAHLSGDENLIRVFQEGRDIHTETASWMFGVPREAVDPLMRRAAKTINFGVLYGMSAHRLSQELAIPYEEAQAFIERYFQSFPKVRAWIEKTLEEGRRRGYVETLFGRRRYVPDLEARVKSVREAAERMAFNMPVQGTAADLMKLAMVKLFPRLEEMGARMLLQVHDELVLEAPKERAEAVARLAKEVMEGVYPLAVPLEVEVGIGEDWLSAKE
UniProt P52028, whole entry: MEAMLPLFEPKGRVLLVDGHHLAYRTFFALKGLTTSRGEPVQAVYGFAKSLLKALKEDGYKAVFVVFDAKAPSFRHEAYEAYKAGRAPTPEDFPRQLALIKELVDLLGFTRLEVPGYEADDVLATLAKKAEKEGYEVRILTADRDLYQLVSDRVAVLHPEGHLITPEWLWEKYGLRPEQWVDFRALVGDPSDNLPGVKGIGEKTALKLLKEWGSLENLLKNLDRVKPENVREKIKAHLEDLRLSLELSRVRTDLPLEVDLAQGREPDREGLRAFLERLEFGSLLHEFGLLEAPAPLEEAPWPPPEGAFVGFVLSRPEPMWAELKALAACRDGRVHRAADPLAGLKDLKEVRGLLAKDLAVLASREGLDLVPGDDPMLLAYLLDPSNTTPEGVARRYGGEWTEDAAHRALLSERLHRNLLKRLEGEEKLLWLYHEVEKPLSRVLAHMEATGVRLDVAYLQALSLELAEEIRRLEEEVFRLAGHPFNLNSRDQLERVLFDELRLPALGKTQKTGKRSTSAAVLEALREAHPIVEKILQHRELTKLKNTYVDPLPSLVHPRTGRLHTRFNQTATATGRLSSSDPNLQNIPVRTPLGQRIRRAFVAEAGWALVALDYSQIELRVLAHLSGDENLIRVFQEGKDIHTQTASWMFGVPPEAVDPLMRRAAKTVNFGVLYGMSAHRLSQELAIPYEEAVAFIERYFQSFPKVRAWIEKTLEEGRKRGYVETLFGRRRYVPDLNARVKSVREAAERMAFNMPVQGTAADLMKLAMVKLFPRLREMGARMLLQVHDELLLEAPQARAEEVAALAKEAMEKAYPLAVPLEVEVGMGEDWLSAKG
UniProt P30313, whole entry: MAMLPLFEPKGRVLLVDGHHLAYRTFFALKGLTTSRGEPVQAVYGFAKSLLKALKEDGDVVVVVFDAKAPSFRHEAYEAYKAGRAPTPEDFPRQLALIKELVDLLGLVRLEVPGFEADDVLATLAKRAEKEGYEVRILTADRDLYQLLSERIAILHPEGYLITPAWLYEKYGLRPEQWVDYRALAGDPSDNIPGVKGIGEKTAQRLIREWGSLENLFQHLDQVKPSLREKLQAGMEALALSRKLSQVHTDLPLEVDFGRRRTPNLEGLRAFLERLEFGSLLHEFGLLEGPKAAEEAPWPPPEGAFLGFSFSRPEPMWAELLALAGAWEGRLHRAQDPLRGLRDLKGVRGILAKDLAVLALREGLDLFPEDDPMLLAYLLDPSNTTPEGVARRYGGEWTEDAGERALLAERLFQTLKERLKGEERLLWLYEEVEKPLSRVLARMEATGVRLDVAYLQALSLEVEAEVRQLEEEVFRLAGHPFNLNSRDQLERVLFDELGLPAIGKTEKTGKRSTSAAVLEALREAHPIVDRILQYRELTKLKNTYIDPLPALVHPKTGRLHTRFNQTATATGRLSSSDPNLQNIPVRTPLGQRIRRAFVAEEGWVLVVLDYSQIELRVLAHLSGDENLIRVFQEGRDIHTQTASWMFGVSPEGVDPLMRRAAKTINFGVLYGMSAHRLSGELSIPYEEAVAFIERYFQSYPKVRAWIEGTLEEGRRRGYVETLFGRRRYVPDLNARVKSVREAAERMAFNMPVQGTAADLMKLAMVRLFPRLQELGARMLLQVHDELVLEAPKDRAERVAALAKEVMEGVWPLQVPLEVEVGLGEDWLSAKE
Rad1/Rad10 endonuclease complex (Saccharomyces cerevisiae), one chain, as listed by the source, chain 2 of 2: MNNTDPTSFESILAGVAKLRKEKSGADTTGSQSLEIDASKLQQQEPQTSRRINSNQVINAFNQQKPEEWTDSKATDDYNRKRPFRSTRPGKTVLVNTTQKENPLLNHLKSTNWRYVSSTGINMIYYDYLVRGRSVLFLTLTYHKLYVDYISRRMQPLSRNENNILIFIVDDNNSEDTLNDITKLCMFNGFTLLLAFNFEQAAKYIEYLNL
Rad1/Rad10 endonuclease complex (Saccharomyces cerevisiae), one chain, as listed by the source, chain 1 of 2: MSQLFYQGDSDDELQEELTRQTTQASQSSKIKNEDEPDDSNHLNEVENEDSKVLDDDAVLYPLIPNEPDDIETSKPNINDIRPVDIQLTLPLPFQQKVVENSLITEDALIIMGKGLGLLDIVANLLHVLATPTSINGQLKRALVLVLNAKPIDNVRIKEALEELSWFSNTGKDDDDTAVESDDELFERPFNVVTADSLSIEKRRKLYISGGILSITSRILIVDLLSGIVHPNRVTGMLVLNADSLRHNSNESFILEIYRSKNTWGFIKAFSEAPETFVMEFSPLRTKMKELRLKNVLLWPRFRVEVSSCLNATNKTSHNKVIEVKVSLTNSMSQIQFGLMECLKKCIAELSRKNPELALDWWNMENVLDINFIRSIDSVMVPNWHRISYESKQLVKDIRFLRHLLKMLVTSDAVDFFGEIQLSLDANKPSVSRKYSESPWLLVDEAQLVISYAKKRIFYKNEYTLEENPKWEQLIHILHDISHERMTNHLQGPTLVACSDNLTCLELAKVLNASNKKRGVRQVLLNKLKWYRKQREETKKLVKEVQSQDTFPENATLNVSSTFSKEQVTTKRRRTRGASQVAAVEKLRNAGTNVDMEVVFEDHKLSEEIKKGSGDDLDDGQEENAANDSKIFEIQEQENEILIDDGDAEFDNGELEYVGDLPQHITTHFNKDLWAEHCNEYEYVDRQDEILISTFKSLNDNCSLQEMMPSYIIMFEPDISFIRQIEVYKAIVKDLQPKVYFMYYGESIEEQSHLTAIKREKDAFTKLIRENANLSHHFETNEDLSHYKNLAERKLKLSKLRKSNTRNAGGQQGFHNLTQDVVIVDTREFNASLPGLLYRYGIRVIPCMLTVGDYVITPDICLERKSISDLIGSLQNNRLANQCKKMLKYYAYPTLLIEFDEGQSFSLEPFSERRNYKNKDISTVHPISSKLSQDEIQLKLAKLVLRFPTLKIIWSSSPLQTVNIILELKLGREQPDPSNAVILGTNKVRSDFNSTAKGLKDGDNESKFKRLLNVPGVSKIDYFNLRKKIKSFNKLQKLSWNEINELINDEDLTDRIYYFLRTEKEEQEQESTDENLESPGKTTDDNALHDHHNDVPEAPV

For series [3], the target named is Taq DNA polymerase (DNAPTaq) (Thermus aquaticus) (UniProt P19821). The conditions noted are these: multiple products with dNTPs due to synthesis; purified native protein; label: 5' 32P; folded or branched DNA.
Series [4] deals with Tth DNA polymerase (Thermus thermophilus) (UniProt P52028). To be noted: same structures recognised as Cleavase BN; purified native protein; label: 5' biotin; single-stranded DNA.
The target of series [5] is Tfl DNA polymerase (Thermus flavus) (UniProt P30313). The conditions noted are these: less efficient than Tth; purified native protein; label: 5' biotin; single-stranded DNA.
[6] abbreviates: variant of tyrosinase exon 4 wild-type sense 157 nt.

For part of these data: Tags and fusion partners may be left off the protein sequences shown.

For the sequence “CACCGTCCTCTTCAAGAAGTTTATCCAGAAGCCAATGCACCCATTGGACATAACCAGGAATCCTACATGGTTCCTTTTATACCACTGTACAGAAATGGTGATTTCTTTATTTCATCCAAAGATCTGGGCTATGACTATAGCTATCTACAAGATTCAG [tyrosinase 422 mutant sense 157 nt]”, the “activity on this sequence” value in series [1] (new bands at 42-80 nt, variant of tyrosinase exon 4 wild-type sense 157 nt) was “active”; in series [2] (setting [6]) it was “active”.

Regarding “CACCGTCCTCTTCAAGAAGTTTATCCAGAAGCCAATGCACCCATTAGACATAACCGGGAATCCTACATGGTTCCTTTTATACCACTGTACAGAAATGGTGATTTCTTTATTTCATCCAAAGATCTGGGCTATGACTATAGCTATCTACAAGATTCAG [tyrosinase 419 mutant sense 157 nt]”, the “activity on this sequence” value in series [1] (one band absent compared with wild type, variant of tyrosinase exon 4 wild-type sense 157 nt) was “active”; in series [2] (setting [6]) it was “active”.

For “TAATACGACTCACTATAGGGAGACCGGAATTCGAGCTCGCCCGGGCGAGCTCGAATTCCGTGTATTCTATAGTGTCACCTAAATCGAATTC / GATTTAGGTGACACTATAG [hairpin test molecule with primer annealed to 3' arm]”, the “activity on this sequence” value in series [3] is “active”.

Turning to “CACCGTCCTCTTCAAGAAGTTTATCCAGAAGCCAATGCACCCATTGGACATAACCGGGAATCCTACATGGTTCCTTTTATACCACTGTACAGAAATGGTGATTTCTTTATTTCATCCAAAGATCTGGGCTATGACTATAGCTATCTACAAGATTCAG [tyrosinase exon 4 wild-type sense 157 nt]”, the “activity on this sequence” value in series [1] (cleaves 3' arm), in series [4], in series [2] and in series [5] was “active” in each case.

The record behind these values is US5843669.
